Data from PMC12866823, “The Pivotal Role of GR‐CAR Pathway in Fetal Programming of Hepatic Cytochrome P450 3A Alteration in Adulthood” (Advanced Science, 2025).

Assay: in vivo
Settings: male, Wistar, rat, po, 10 mg/kg

Q: For `COC(=O)C1=C(C)NC(C)=C(C(=O)OC)C1c1ccccc1[N+](=O)[O-]` [nifedipine], which half-life is on record?
A: 24.8 ± 38.5 h

Q: And the MRT last (MRT 0-24)?
A: 8.8 ± 0.9 h
